No constants are given. Whether binding was seen depends on the method and setting. Some entries that bind do so weakly or less than the wild type. Tags and fused reporters may be left off the sequences shown.
Legend:
[1] = molecular target: natural dog TGFb1 in dog serum (dog) (UniProt P54831); assay: in vitro ELISA for TGFb1; supernatant of transfected 293-Hek cells mixed with dog serum containing natural dog TGFb1; bound TGFb1 is not detected
[2] = molecular target: natural dog TGFb1 in dog serum (dog) (UniProt P54831); assay: in vitro ELISA for TGFb1; supernatant of transfected 293-Hek cells mixed with dog serum; bound TGFb1 is not detected

Protein sequences, listed by entry. Tags and fused reporters are not part of them. Residues count along the entry.
UniProt P54831, residues 279-390: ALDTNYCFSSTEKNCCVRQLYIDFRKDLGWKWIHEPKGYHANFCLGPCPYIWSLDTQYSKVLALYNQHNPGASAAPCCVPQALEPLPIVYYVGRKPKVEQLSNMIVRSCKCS

- binding [1]: binds
- binding [2]: binds
B1: dog-stgfbr2-fc modified to include the mouse/human secretion signal (Fc fusion)
chain: TNNDMMVTDSNGVIKFPQLCKFCDVRSSTCDNQKSCMSNCSITSICEKPHEVCLAVWRKNDENITLETLCHDPKDTYHGIVLEDAASSKCIMKEKKVLGETFFMCSCSSDECNDYIIFSEEYATNNPDLLLVIFQPKRENGRVPRPPDCPKCPAPEMLGGPSVFIFPPKPKDTLLIARTPEVTCVVVDLDPEDPEVQISWFVDGKQMQTAKTQPREEQFNGTYRVVSVLPIGHQDWLKGKQFTCKVNNKALPSPIERTISKARGQAHQPSVYVLPPSREELSKNTVSLTCLIKDFFPPDIDVEWQSNGQQEPESKYRTTPPQLDEDGSYFLYSKLSVDKSRWQRGDTFICAVMHEALHNHYTQESLSHSPGKGGSGGSDYKDHDGDYKDHDIDYKDDDDK

From patent US20250122267A1
